Experiment [1] deals with T1, Flag-tagged VCPIP1 (pVCPIP1-Flag) (UniProt Q96JH7).
T1 sequence: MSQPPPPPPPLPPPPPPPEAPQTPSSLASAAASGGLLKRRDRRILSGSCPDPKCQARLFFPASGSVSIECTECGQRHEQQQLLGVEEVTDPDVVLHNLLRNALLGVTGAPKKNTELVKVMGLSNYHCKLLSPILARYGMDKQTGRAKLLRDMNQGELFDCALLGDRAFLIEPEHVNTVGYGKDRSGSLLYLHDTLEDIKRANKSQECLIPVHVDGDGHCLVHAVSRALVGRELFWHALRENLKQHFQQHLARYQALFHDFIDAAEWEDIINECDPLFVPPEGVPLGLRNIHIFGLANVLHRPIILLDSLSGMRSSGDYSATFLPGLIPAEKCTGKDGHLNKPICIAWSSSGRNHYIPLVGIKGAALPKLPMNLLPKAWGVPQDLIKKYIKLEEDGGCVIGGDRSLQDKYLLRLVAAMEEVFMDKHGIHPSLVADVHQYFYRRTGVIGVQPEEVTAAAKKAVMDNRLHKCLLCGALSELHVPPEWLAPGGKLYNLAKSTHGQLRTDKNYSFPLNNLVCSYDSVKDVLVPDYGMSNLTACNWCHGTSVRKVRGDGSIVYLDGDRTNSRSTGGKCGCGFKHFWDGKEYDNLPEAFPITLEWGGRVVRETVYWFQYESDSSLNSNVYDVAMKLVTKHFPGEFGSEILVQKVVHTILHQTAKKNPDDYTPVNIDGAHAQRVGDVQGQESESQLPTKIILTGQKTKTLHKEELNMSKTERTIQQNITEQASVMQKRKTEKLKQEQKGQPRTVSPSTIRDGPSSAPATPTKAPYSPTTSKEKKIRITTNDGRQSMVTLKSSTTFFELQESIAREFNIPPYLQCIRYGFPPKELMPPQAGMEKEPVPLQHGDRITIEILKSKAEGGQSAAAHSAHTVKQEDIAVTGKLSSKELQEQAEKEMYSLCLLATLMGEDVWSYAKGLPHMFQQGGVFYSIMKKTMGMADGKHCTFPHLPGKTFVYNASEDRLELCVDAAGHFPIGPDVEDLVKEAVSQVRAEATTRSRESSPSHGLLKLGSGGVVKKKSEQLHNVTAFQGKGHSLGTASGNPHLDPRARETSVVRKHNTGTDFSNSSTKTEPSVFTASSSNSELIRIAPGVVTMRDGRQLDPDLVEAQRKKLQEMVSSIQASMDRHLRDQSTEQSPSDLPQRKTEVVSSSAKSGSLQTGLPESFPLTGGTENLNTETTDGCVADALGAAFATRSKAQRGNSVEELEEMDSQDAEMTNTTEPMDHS
Briefly: co-IP; lysates of transfected Huh7 cells (1 mg) precipitated with EZview Red anti-Flag M2 affinity gel, Western blot; in Fig. 5A cells with or without pVCPIP1-Myc and treated with MG132. Background: A western blot detects proteins with antibodies after separation by electrophoresis.

The chains behind the UniProt entries cited, without tags or fusion partners.
UniProt P17980: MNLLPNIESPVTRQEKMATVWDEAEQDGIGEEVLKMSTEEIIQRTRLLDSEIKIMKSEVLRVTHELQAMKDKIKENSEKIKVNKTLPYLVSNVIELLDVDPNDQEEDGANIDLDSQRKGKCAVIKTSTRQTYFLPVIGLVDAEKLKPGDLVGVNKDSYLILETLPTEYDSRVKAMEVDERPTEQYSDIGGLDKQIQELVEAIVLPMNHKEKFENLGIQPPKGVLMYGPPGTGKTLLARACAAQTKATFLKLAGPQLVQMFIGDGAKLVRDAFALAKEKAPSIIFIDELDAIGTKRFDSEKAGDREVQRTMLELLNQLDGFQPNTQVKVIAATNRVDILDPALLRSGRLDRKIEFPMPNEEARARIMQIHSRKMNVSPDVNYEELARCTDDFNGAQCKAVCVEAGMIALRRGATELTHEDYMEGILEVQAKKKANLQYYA

In experiment [2] the target is full-length PSMC3 (aa 1–439) fused to the DNA-BD epitope (pGBKT7-PSMC3 (aa 1–439)) (human) (UniProt P17980). Briefly: two-hybrid; Matchmaker Gold system; Y2HGold with pGBKT7 bait mated with Y187 with pGADT7 prey for 22 h; diploids selected on QDO/AbA (SD/-Trp/-Leu/-His/-Ade with 125 ng/mL aureobasidin A).

The source of these data is publication PMC9278118.

Results are given in words; binding and its absence hold for the method and conditions named. For some assays here: In cells and extracts the contact can be indirect. Some results given as binding are weak or reduced against the parent protein; the word gives no strength. Tags and fused reporters may be left off the sequences shown.

Consider “endogenous PSMC3 (26S proteasome regulatory subunit 6A) (from UniProt P17980 1-439)”, for which the binding entry in experiment [1] is “binds”.

B1: VCPIP1 (aa 1-1221) fused with the GAL4 AD domain (pGADT7-VCPIP1) (enzyme, UniProt Q96JH7 1-1221)
chain: MSQPPPPPPPLPPPPPPPEAPQTPSSLASAAASGGLLKRRDRRILSGSCPDPKCQARLFFPASGSVSIECTECGQRHEQQQLLGVEEVTDPDVVLHNLLRNALLGVTGAPKKNTELVKVMGLSNYHCKLLSPILARYGMDKQTGRAKLLRDMNQGELFDCALLGDRAFLIEPEHVNTVGYGKDRSGSLLYLHDTLEDIKRANKSQECLIPVHVDGDGHCLVHAVSRALVGRELFWHALRENLKQHFQQHLARYQALFHDFIDAAEWEDIINECDPLFVPPEGVPLGLRNIHIFGLANVLHRPIILLDSLSGMRSSGDYSATFLPGLIPAEKCTGKDGHLNKPICIAWSSSGRNHYIPLVGIKGAALPKLPMNLLPKAWGVPQDLIKKYIKLEEDGGCVIGGDRSLQDKYLLRLVAAMEEVFMDKHGIHPSLVADVHQYFYRRTGVIGVQPEEVTAAAKKAVMDNRLHKCLLCGALSELHVPPEWLAPGGKLYNLAKSTHGQLRTDKNYSFPLNNLVCSYDSVKDVLVPDYGMSNLTACNWCHGTSVRKVRGDGSIVYLDGDRTNSRSTGGKCGCGFKHFWDGKEYDNLPEAFPITLEWGGRVVRETVYWFQYESDSSLNSNVYDVAMKLVTKHFPGEFGSEILVQKVVHTILHQTAKKNPDDYTPVNIDGAHAQRVGDVQGQESESQLPTKIILTGQKTKTLHKEELNMSKTERTIQQNITEQASVMQKRKTEKLKQEQKGQPRTVSPSTIRDGPSSAPATPTKAPYSPTTSKEKKIRITTNDGRQSMVTLKSSTTFFELQESIAREFNIPPYLQCIRYGFPPKELMPPQAGMEKEPVPLQHGDRITIEILKSKAEGGQSAAAHSAHTVKQEDIAVTGKLSSKELQEQAEKEMYSLCLLATLMGEDVWSYAKGLPHMFQQGGVFYSIMKKTMGMADGKHCTFPHLPGKTFVYNASEDRLELCVDAAGHFPIGPDVEDLVKEAVSQVRAEATTRSRESSPSHGLLKLGSGGVVKKKSEQLHNVTAFQGKGHSLGTASGNPHLDPRARETSVVRKHNTGTDFSNSSTKTEPSVFTASSSNSELIRIAPGVVTMRDGRQLDPDLVEAQRKKLQEMVSSIQASMDRHLRDQSTEQSPSDLPQRKTEVVSSSAKSGSLQTGLPESFPLTGGTENLNTETTDGCVADALGAAFATRSKAQRGNSVEELEEMDSQDAEMTNTTEPMDH
Regarding B1, in experiment [2], the binding entry is on record as “binds”.
